Experimental data taken from PMC9805450.
Results are given in words; binding and its absence hold for the method and conditions named. Binding seen in cells or lysates may run through a third protein. These calls come from enrichment with a bait or labelling near it, and not all partners need be listed.

By UniProt entry, the sequences of proteins in these tests, tags left out.
UniProt Q9NRC8: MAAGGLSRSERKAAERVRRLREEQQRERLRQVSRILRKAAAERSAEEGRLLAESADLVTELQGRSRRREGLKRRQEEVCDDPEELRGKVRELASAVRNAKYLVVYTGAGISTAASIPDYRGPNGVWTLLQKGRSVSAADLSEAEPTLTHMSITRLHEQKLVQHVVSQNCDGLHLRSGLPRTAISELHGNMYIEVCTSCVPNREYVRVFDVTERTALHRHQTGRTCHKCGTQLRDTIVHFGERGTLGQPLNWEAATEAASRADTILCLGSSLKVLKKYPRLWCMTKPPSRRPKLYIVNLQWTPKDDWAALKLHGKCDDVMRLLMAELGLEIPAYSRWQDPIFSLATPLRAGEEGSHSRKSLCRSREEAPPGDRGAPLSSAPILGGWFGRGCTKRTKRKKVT
UniProt P09429: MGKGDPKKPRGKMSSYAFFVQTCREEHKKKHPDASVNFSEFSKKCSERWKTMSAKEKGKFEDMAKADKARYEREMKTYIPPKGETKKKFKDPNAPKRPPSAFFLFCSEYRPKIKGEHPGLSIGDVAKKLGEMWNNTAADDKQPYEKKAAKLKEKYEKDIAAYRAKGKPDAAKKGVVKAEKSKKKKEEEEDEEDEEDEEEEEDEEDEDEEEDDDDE

Biological target: SIRT7 (human (endogenous in HaCaT)) (UniProt Q9NRC8)
Test: affinity purification with mass spectrometry; immunoprecipitation with SIRT7 antibody against control IgG from keratinocytes, control and IR-treated; SDS-PAGE, trypsin digest, orbitrap LC-MS/MS

binding: binds
Substance: High-mobility group box 1 (HMGB1) (from UniProt P09429 1-215)
